# Measurements from US20180094275A1 (AGRESEARCH, published 2018).
# B1: BiFC cYFP-PPD1-tify (PPD1 with the TIFY domain deleted, aa 154-186) (other)
# chain: MDKQKNGIKANFKIRHNIEDGGVQLADHYQQNTPIGDGPVLLPDNHYLSYQSALSKDPNEKRDHMVLLEFVTAAGITLGMDELYKYPYDVPDYAGPRPTSGSVDLEGTAPGSMDVGVSPAKSILAKPLKLLTEEDISQLTREDCRKFLKDKGMRRPSWNKSQAIQQVLSLKALYEPGDDSGAGIFRKILVSQPVNPPRVTTTLIEPSNELEACGRVSYPEDNGACHRMDSPRSAEFSGGSGHFVSEKDGHKTTISPRSPAETSELIMHFAANPIDLPENGIFASSRMISKLISKEKMMELPQKGLEKANSSRDSGMEGQANRKVSLQRYREKRKDRKFSKAKKCPGVASSSLEMFLNCQPRMKAAYSQNLGCTGSPLHSQSPESQTKSPNLSVDLNSEGI
# notes: also called cYFP-PPD1Δtify; pDESTcYFP-PPD1Δtify
# How the values were obtained:
# BiFC nYFP-NINJA = target: T1, BiFC nYFP-NINJA (Arabidopsis thaliana); assay: BiFC in Nicotiana benthamiana leaves
# T1 construct: Expressed transiently in Nicotiana benthamiana leaves; also called pDESTnYFP-NINJA
# T1 chain: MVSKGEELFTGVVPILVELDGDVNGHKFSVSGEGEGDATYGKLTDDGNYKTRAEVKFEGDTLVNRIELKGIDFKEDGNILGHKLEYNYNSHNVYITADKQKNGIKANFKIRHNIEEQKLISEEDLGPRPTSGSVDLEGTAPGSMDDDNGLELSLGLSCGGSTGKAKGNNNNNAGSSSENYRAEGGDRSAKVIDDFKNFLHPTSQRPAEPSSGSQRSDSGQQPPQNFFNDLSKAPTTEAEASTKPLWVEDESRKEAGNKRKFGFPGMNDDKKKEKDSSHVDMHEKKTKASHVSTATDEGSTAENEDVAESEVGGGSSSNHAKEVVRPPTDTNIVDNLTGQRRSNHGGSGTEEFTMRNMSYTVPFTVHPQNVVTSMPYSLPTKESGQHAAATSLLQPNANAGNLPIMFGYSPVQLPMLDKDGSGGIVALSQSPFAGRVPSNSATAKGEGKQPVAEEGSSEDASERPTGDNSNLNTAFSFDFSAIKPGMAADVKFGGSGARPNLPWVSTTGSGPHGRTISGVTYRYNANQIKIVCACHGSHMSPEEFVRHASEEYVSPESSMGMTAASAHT
# BiFC nYFP-BZR1 = target: T2, BiFC nYFP-BZR1 (Arabidopsis thaliana); assay: BiFC in immature Nicotiana benthamiana leaves
# T2 construct: Expressed transiently in Nicotiana benthamiana leaves; also called pDESTnYFP-BZR1
# T2 chain: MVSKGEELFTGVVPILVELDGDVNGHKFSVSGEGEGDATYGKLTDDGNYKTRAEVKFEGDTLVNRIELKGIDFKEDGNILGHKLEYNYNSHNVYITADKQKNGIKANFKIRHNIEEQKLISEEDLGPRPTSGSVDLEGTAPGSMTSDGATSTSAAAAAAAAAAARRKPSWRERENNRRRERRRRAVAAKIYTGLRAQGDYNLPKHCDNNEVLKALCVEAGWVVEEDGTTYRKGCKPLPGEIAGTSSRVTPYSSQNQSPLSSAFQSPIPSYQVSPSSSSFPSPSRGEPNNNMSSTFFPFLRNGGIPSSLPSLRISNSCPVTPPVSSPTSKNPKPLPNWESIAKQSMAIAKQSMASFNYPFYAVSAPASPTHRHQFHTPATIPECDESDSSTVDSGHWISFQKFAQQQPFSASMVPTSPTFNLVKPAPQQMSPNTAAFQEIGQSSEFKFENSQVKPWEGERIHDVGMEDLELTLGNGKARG
binder,measurement,setting,value
B1,binding result,BiFC nYFP-NINJA,no binding
same,binding result,BiFC nYFP-BZR1,no binding
